PubChem BioAssay AID1259424 | University of Nebraska Medical Center, 2018

- Assay: 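Find knockdowns that reproduce the expression shifts seen after KSR1 loss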 (primary screen)
- System: human HCT116 colon cancer cells
- Reagents: siRNA pool against human genes, 50 nM
- Measurement: 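Six signature mRNAs by branched-DNA multiplex assay, scaled to two housekeeping genes and non-targeting median, log2; matched to mean KSR1 knockdown profile by Pearson correlation and euclidean distance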
- Reading the numbers: mean correlation with KSR1 profile: higher = expression change more like KSR1 knockdown; mean distance from KSR1 profile: higher = expression change less like KSR1 knockdown
The deposit covers about 14,000 reagents; shown is a random part of them. 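Higher correlation or smaller distance means closer resemblance to KSR1 loss; control wells, including KSR1 knockdowns, recur on many plates.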 Not all columns of the deposit are shown. Not given: the time to read-out.

What did the screen give for SSX3?
mean correlation with KSR1 profile: 0.0418; mean distance from KSR1 profile: 2

With BHMT2, what was measured?
mean correlation with KSR1 profile: -0.49; mean distance from KSR1 profile: 1.85

How did the screen score SH3TC1?
mean correlation with KSR1 profile: -0.151; mean distance from KSR1 profile: 3.07

Which result is listed for SH2D2A?
mean correlation with KSR1 profile: 0.343; mean distance from KSR1 profile: 2.65

What is on record for TRIM21?
mean correlation with KSR1 profile: 0.382; mean distance from KSR1 profile: 1.5

Which result is listed for CAV3?
mean correlation with KSR1 profile: -0.216; mean distance from KSR1 profile: 1.88

With SMARCA2, how do the results read?
mean correlation with KSR1 profile: 0.266; mean distance from KSR1 profile: 0.846

What is on record for FOLR2?
mean correlation with KSR1 profile: 0.283; mean distance from KSR1 profile: 1.2

For GNRH1, how do the results read?
mean correlation with KSR1 profile: 0.761; mean distance from KSR1 profile: 1.1

For RASGRP2, what does the deposit list?
mean correlation with KSR1 profile: -0.127; mean distance from KSR1 profile: 2.17

With LSM8, what does the deposit list?
mean correlation with KSR1 profile: -0.691; mean distance from KSR1 profile: 3.3

For RGS13, what does the deposit list?
mean correlation with KSR1 profile: -0.582; mean distance from KSR1 profile: 1.7

What is on record for ZDHHC16?
mean correlation with KSR1 profile: 0.503; mean distance from KSR1 profile: 1.96

What did the screen give for METTL14?
mean correlation with KSR1 profile: 0.514; mean distance from KSR1 profile: 0.836

What is on record for KATNIP?
mean correlation with KSR1 profile: -0.778; mean distance from KSR1 profile: 2.85

With SLCO1B3, how do the results read?
mean correlation with KSR1 profile: 0.415; mean distance from KSR1 profile: 1.03

For SULT2B1, how do the results read?
mean correlation with KSR1 profile: -0.12; mean distance from KSR1 profile: 3.2

How did the screen score GTF2H1?
mean correlation with KSR1 profile: 0.359; mean distance from KSR1 profile: 3.21

Which result is listed for CETP?
mean correlation with KSR1 profile: -0.0845; mean distance from KSR1 profile: 1.98

Which result is listed for CACNB4?
mean correlation with KSR1 profile: 0.611; mean distance from KSR1 profile: 3.46

What did the screen give for ACTL8?
mean correlation with KSR1 profile: 0.428; mean distance from KSR1 profile: 2.4

Which result is listed for MYL5?
mean correlation with KSR1 profile: -0.646; mean distance from KSR1 profile: 3.55

For DNAAF11, what does the deposit list?
mean correlation with KSR1 profile: -0.0656; mean distance from KSR1 profile: 1.59

Which result is listed for CASP8AP2?
mean correlation with KSR1 profile: -0.501; mean distance from KSR1 profile: 3.11

With CPA2, what was measured?
mean correlation with KSR1 profile: 0.0802; mean distance from KSR1 profile: 2.2

With JPH3, what was measured?
mean correlation with KSR1 profile: 0.422; mean distance from KSR1 profile: 1.17

With ELF2, what was measured?
mean correlation with KSR1 profile: 0.623; mean distance from KSR1 profile: 1.8

With PPP1CC, what does the deposit list?
mean correlation with KSR1 profile: -0.0315; mean distance from KSR1 profile: 1.02

A few values from above:
TRIM21, mean correlation with KSR1 profile = 0.382
Value for DNAAF11 in “mean correlation with KSR1 profile”: -0.0656
